No constants are given. Whether binding was seen depends on the method and setting. Binding seen in cells or lysates may run through a third protein. Here binding means that the protein was enriched with, or labelled near, the bait; the list need not be complete.
Biological target: TgTBC9^3xHA (Toxoplasma gondii)
Test: affinity purification with mass spectrometry; TgTBC9^3xHA precipitated from NP-40 lysate (50 mM Tris pH 8.0, 150 mM NaCl, 1% NP-40) of extracellular parasites with anti-HA sepharose beads, 4 h at room temperature, 4 washes, eluted at high pH; untagged parasites as control; LC-MS/MS

B1: Rab11B (protein, UniProt Q7Z158 1-226)
chain: MAGGSEDYDHLYKVILVGDATVGKTHLLSRYIRGTLPKSPKATIGVEFATRTVPLAVGGTVKAQIWDTAGQERYRSITSAHYRRAVGALLVYDVTRKSTFLNASKWLEELRQNSEPDIVIMMVGNKLDLVEKDPTARDVPYELAAKFAQANGLYFSEASAVTAFNVKHIFEHLLQEIYNHRTQGEEFSGRANGADAYRDAQALGGVRLAANANMYGRNPQNLSCCG
B1 was tested, and the binding was “binds”.
